Measured values published in the supplement of paper PMC4604168 (melanoma cell lines).
The list shows a part of the results. Many values rest on one well or one pass, so single values are uncertain.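 The apoptosis fraction was the count of cleaved-PARP antibody-stained nuclei relative to all DNA-stained nuclei, imaged in 1,536-well plates. Screening doses were set so most cells survived, and baseline and induced cleaved-PARP levels vary greatly across cell lines.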

What was measured:
Experiment in all cases: cleaved PARP positive nuclei fraction relative to DMSO control; melanoma cells; higher = more apoptosis
Conditions in all cases: library dose: low library concentration; 72 h
CBRC034 = tested on: CBRC034 (line from a melanoma biopsy)
COLO792 = tested on: COLO792
COLO800 = tested on: COLO800
COLO829 = tested on: COLO829
G361 = tested on: G361
IPC-298 = tested on: IPC-298
IST-MEL1 = tested on: IST-MEL1
LB2518-MEL = tested on: LB2518-MEL
LOXIMVI = tested on: LOXIMVI

Structure (SMILES)	cleaved PARP positive nuclei fraction (CBRC034) [%]	cleaved PARP positive nuclei fraction (COLO792) [%]	cleaved PARP positive nuclei fraction (COLO800) [%]	cleaved PARP positive nuclei fraction (COLO829) [%]	cleaved PARP positive nuclei fraction (G361) [%]	cleaved PARP positive nuclei fraction (IPC-298) [%]	cleaved PARP positive nuclei fraction (IST-MEL1) [%]	cleaved PARP positive nuclei fraction (LB2518-MEL) [%]	cleaved PARP positive nuclei fraction (LOXIMVI) [%]
COc1cc2ncnc(Nc3ccc(Oc4ccccc4)cc3)c2cc1OC + O=C(Oc1ccc([N+](=O)[O-])cc1)N1CCC(C(O)(c2ccc3c(c2)OCO3)c2ccc3c(c2)OCO3)CC1 [JZL184] (first compound 2 µM, partner dose 1 µM)	38.1	131	89.4	41.1	45.1	112	43.6	124	30.4
C[As](C)SC[C@H](NC(=O)CC[C@H](N)C(=O)O)C(=O)NCC(=O)O [Darinaparsin] + Oc1nc(-c2ccc(C(F)(F)F)cc2)nc2c1CSCC2 [XAV939] (first compound 0.4 µM, partner dose 2 µM)	39.5	69.5	12.8	49.5	71.2	125	128	79.3	23.8
OCCn1cc(-c2cnc3nnn(Cc4ccc5ncccc5c4)c3n2)cn1 + O=C(Oc1ccc([N+](=O)[O-])cc1)N1CCC(C(O)(c2ccc3c(c2)OCO3)c2ccc3c(c2)OCO3)CC1 [JZL184] (first compound 1 µM, partner dose 1 µM)	44.6	141	145	89.3	38.2	42.2	118	154	7.95
C=CCn1c(=O)c2cnc(Nc3ccc(N4CCN(C)CC4)cc3)nc2n1-c1cccc(C(C)(C)O)n1 + O=C(Oc1ccc([N+](=O)[O-])cc1)N1CCC(C(O)(c2ccc3c(c2)OCO3)c2ccc3c(c2)OCO3)CC1 [JZL184] (first compound 0.02 µM, partner dose 1 µM)	107	77.5	166	44.8	85	200	81.4	110	75.3
C/C(O)=C(\C#N)C(=O)Nc1cc(Br)ccc1Br + CCCCCCCCCCCC1=C(O)C(=O)C=C(O)C1=O [Embelin] (first compound 2 µM, partner dose 1.2 µM)	77.2	67.4	98.6	110	117	80.2	177	89.9	83.1
C[As](C)SC[C@H](NC(=O)CC[C@H](N)C(=O)O)C(=O)NCC(=O)O [Darinaparsin] + c1cc(-c2cnn3cc(-c4ccc(OCCN5CCCCC5)cc4)cnc23)ccn1 [Dorsomorphin] (first compound 0.4 µM, partner dose 0.4 µM)	93.2	142	61.8	114	179	214	88.1	85.2	71.6
COc1ccc2c(c1)CCC1C2CCC2(C)C(NCCCCCCN3C(=O)C=CC3=O)CCC12 (stereo unspecified) + Cc1cc(SCc2sc(-c3ccc(C(F)(F)F)c(F)c3)nc2C)ccc1OCC(=O)O [GW0742] (first compound 0.4 µM, partner dose 2 µM)	30.6	118	184	58.1	118	499	229	146	45.2
Cc1cc(N2CCOCC2)cc2[nH]c(-c3c(NC[C@@H](O)c4cccc(Cl)c4)cc[nH]c3=O)nc12 + O=C(Oc1ccc([N+](=O)[O-])cc1)N1CCC(C(O)(c2ccc3c(c2)OCO3)c2ccc3c(c2)OCO3)CC1 [JZL184] (first compound 0.2 µM, partner dose 1 µM)	97.5	247	190	116	98.3	85.2	44.8	173	84.7
C/C(O)=C(\C#N)C(=O)Nc1cc(Br)ccc1Br + Oc1nc(-c2ccc(C(F)(F)F)cc2)nc2c1CSCC2 [XAV939] (first compound 2 µM, partner dose 2 µM)	54.9	153	195	71.3	69.1	83	29.2	89.2	163
NC(=O)Nc1cc(-c2cccc(F)c2)sc1C(=O)N[C@H]1CCCNC1 + C/C(O)=C(\C#N)C(=O)Nc1cc(Br)ccc1Br [LFM-A13] (first compound 0.02 µM, partner dose 2 µM)	134	51.1	99.9	47.4	123	55	143	192	641
O=S(=O)(c1ccccc1)N(CC(F)(F)F)c1ccc(C(O)(C(F)(F)F)C(F)(F)F)cc1 + O=C(Oc1ccc([N+](=O)[O-])cc1)N1CCC(C(O)(c2ccc3c(c2)OCO3)c2ccc3c(c2)OCO3)CC1 [JZL184] (first compound 1.4 µM, partner dose 1 µM)	107	77.5	94.8	78.2	107	88.4	201	42.8	49.7
O=C(Oc1ccc([N+](=O)[O-])cc1)N1CCC(C(O)(c2ccc3c(c2)OCO3)c2ccc3c(c2)OCO3)CC1 + Cn1cc(/C=C2\C(=O)Nc3cccnc32)c2ccccc21 [GW441756] (first compound 1 µM, partner dose 0.4 µM)	88.6	63.6	140	91.8	167	98.2	167	196	76.3
COc1cc(Nc2ncc(F)c(Nc3ccc4c(n3)NC(=O)C(C)(C)O4)n2)cc(OC)c1OC [Tamatinib] + Cc1cc(SCc2sc(-c3ccc(C(F)(F)F)c(F)c3)nc2C)ccc1OCC(=O)O [GW0742] (first compound 0.4 µM, partner dose 2 µM)	39.3	185	88.7	170	127	63.4	54.8	113	165
Cn1c(Nc2ccc(C(F)(F)F)cc2)nc2cc(Oc3ccnc(-c4ncc(C(F)(F)F)[nH]4)c3)ccc21 + C/C(O)=C(\C#N)C(=O)Nc1cc(Br)ccc1Br [LFM-A13] (first compound 0.08 µM, partner dose 2 µM)	117	865	102	72.5	348	93.5	41.9	152	121
Cc1cc(SCc2sc(-c3ccc(C(F)(F)F)c(F)c3)nc2C)ccc1OCC(=O)O + CCCCCCCCCCCC1=C(O)C(=O)C=C(O)C1=O [Embelin] (first compound 2 µM, partner dose 1.2 µM)	62.6	82.9	86.1	132	91.3	84.7	133	319	63.5
Cc1ccc(NC(=O)c2cccc(N(C)C)c2)cc1NC(=O)c1ccc(O)cc1 + Cc1cc(SCc2sc(-c3ccc(C(F)(F)F)c(F)c3)nc2C)ccc1OCC(=O)O [GW0742] (first compound 2 µM, partner dose 2 µM)	112	110	144	79	84.2	51.6	185	188	28.3
Cc1nc(Nc2ncc(C(=O)Nc3c(C)cccc3Cl)s2)cc(N2CCN(CCO)CC2)n1 [dasatanib] + C/C(O)=C(\C#N)C(=O)Nc1cc(Br)ccc1Br [LFM-A13] (first compound 0.004 µM, partner dose 2 µM)	462	215	163	91.8	132	74.1	90.3	42.2	110
O=C(Nc1cccc(Cl)c1)Nc1ncc(CCNc2ncnc3ccsc23)s1 + Cc1cc(SCc2sc(-c3ccc(C(F)(F)F)c(F)c3)nc2C)ccc1OCC(=O)O [GW0742] (first compound 0.0008 µM, partner dose 2 µM)	297	100	74.8	67.4	52.3	158	65.4	115	58.6
C[As](C)SC[C@H](NC(=O)CC[C@H](N)C(=O)O)C(=O)NCC(=O)O [Darinaparsin] + O=C(Oc1ccc([N+](=O)[O-])cc1)N1CCC(C(O)(c2ccc3c(c2)OCO3)c2ccc3c(c2)OCO3)CC1 [JZL184] (first compound 0.4 µM, partner dose 1 µM)	54.6	65.9	137	140	70.7	55.2	59.5	80.4	21.7
Cc1cc(SCc2sc(-c3ccc(C(F)(F)F)c(F)c3)nc2C)ccc1OCC(=O)O + CC(C)CCN1c2nc(Nc3cc(F)c(O)c(F)c3)ncc2N(C)C(=O)C1C [BID1870] (first compound 2 µM, partner dose 0.2 µM)	103	59.5	20	92.6	54	62.6	72.9	166	173
C/C(O)=C(\C#N)C(=O)Nc1cc(Br)ccc1Br + O=C1NC(=O)/C(=C/c2ccc(-c3ccc(F)cc3O)o2)S1 [AS252424] (first compound 2 µM, partner dose 1 µM)	76.2	73.3	143	89.2	62.1	36.4	23.1	83.8	30.4
CCN(CC)CCCCNc1ncc2cc(-c3cc(OC)cc(OC)c3)c(NC(=O)NC(C)(C)C)nc2n1 + O=C(Oc1ccc([N+](=O)[O-])cc1)N1CCC(C(O)(c2ccc3c(c2)OCO3)c2ccc3c(c2)OCO3)CC1 [JZL184] (first compound 0.1 µM, partner dose 1 µM)	59.7	82.9	178	121	180	149	75.7	74.7	72.3
OCCn1cc(-c2cnc3nnn(Cc4ccc5ncccc5c4)c3n2)cn1 + C/C(O)=C(\C#N)C(=O)Nc1cc(Br)ccc1Br [LFM-A13] (first compound 1 µM, partner dose 2 µM)	100	114	87.1	63.2	171	68.1	59.1	82.4	42.7
O=C1NC(=O)/C(=C/c2ccc(-c3ccc(F)cc3O)o2)S1 + O=C(Oc1ccc([N+](=O)[O-])cc1)N1CCC(C(O)(c2ccc3c(c2)OCO3)c2ccc3c(c2)OCO3)CC1 [JZL184] (first compound 1 µM, partner dose 1 µM)	84.6	105	99	145	195	126	58.8	81.9	80.5

Some of the entries so far, bar-delimited:
Structure (SMILES) | cleaved PARP positive nuclei fraction (CBRC034) [%] | cleaved PARP positive nuclei fraction (COLO792) [%] | cleaved PARP positive nuclei fraction (COLO800) [%] | cleaved PARP positive nuclei fraction (COLO829) [%] | cleaved PARP positive nuclei fraction (G361) [%] | cleaved PARP positive nuclei fraction (IPC-298) [%] | cleaved PARP positive nuclei fraction (IST-MEL1) [%] | cleaved PARP positive nuclei fraction (LB2518-MEL) [%] | cleaved PARP positive nuclei fraction (LOXIMVI) [%]
C=CCn1c(=O)c2cnc(Nc3ccc(N4CCN(C)CC4)cc3)nc2n1-c1cccc(C(C)(C)O)n1 + O=C(Oc1ccc([N+](=O)[O-])cc1)N1CCC(C(O)(c2ccc3c(c2)OCO3)c2ccc3c(c2)OCO3)CC1 [JZL184] (first compound 0.02 µM, partner dose 1 µM) | 107 | 77.5 | 166 | 44.8 | 85 | 200 | 81.4 | 110 | 75.3
COc1cc(Nc2ncc(F)c(Nc3ccc4c(n3)NC(=O)C(C)(C)O4)n2)cc(OC)c1OC [Tamatinib] + Cc1cc(SCc2sc(-c3ccc(C(F)(F)F)c(F)c3)nc2C)ccc1OCC(=O)O [GW0742] (first compound 0.4 µM, partner dose 2 µM) | 39.3 | 185 | 88.7 | 170 | 127 | 63.4 | 54.8 | 113 | 165
